Results are given in words; binding and its absence hold for the method and conditions named. In cells and extracts the contact can be indirect. Some binding calls cover weakened binding; strength is not graded here. Sequences can lack the tags named with a protein.
Target: Flag-PDI (protein disulfide isomerase) (UniProt P07237)
Experiment: co-IP; Flag-PDI co-expressed with GFP-EplA, GFP-Asp14 or GFP in HEK-293T cells; 16 h after transfection lysates incubated with Flag antibody-conjugated agarose; eluates blotted with GFP and Flag antibodies

Amino acid sequences for entries named in this document (tags omitted). Residues count along the entry.
UniProt P07237, residues 18-508: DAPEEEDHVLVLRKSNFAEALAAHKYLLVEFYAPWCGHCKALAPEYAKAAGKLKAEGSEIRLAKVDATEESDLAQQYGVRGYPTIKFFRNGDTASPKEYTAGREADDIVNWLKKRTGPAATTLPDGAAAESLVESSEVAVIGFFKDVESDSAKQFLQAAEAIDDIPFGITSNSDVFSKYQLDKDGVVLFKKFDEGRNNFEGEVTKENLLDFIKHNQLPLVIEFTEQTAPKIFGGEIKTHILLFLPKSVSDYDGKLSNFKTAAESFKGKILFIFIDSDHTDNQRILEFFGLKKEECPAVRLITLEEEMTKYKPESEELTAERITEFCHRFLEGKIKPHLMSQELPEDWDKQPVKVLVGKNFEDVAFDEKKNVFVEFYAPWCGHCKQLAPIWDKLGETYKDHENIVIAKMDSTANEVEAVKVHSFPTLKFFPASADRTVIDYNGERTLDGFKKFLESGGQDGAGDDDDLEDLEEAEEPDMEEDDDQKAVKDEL
UniProt Q2GH86: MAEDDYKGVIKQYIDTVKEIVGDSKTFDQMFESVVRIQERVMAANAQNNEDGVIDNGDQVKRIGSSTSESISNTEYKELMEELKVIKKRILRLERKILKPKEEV

Molecule: GFP-EplA (E. chaffeensis PDI ligand A, ECH_0377) (from UniProt Q2GH86 1-104)
- binding: binds

B1: GFP-Asp14 (14-kDa A. phagocytophilum surface protein) (protein, UniProt Q2GL86 1-124)
chain: MIPLAPWKSISVVYMSGSDEYKEIIKQCIGSVKEVFGEGRFDDVVASIMKMQEKVLASSMQQDDTGTVGQIESGEGSGARLSDEQVQQLMNSIREEFKDDLRAIKRRILKLERAVYGANTPKES
- binding: binds

Reference: publication PMC7538545
